{"sequences": {"note": "Sequences of proteins named here, by UniProt entry; tags and fusion partners are left off. A change or cut given only in a name is not applied to a line headed by its entry.", "UniProt P79341": "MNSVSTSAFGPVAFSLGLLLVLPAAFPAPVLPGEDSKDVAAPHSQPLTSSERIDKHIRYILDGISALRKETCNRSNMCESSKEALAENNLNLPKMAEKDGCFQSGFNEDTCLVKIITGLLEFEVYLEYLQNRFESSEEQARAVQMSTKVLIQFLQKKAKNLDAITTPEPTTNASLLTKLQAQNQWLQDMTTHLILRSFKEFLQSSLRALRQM"}, "source": "patent US20160130351A1", "about": "(NOVIMMUNE S A, published 2016)", "binders": {"B1": {"name": "NI-1201 wild type (NI-1201-WT) antibody (antibody, V domains shown)", "VH": "QVQLVQSGAEVKKPGSSVKVSCKASGGTFSSYAISWVRQAPGQGLEWMGGIIPLFDTTKYAQQFQGRVTITADESTSTAYMELSSLRSEDTAVFYCARDRDILTDYYPMGGMDVWGQGTTVTVSS", "VL": "AIQLTQSPSSLSASVGDRVTITCRASQGISSVLAWYQQKPGKAPKLLIYDASSLESGVPSRFSGSGSGTDFTLTISSLQPEDFATYYCQQSNSYPLTFGGGTKVEIKR", "notes": "Fully human monoclonal IgG (captured by anti-human IgG Fc in Biacore); also called 39B9 VL1"}}, "molecular_target": "native cynomolgus IL-6Rc (cynomolgus IL-6 + scyIL-6R) (cynomolgus monkey) (UniProt P79341+A0A2K5WN54)", "assay": "heading of Example 9 (STAT3 Luciferase reporter assay with cynomolgus IL-6 + scyIL-6R)", "note": "Results are given in words; binding and its absence hold for the method and conditions named. Some binding calls cover weakened binding; strength is not graded here.", "data": [{"binder": "B1", "values": [{"measurement": "binding", "result": "binds"}]}]}
